# In PubChem BioAssay AID248 (DTP/NCI, 2004):
# The list shows only some results of the screen, not a fair sample: it gathers tests that were run many times, whatever their T/C, doses with no T/C, and many T/C values between a quarter and a half above the control. Further doses and runs are listed elsewhere. T/C gives the treated animals as a percentage of the vehicle group. Some entries give survivors of the animals treated and no T/C: the source files T/C as zero there, which appears to mark a toxic dose or a test without result, not a measured value. Some survivor counts are full or nearly so, which does not show that the dose was tolerated: survival well below the control is almost never listed, so the zero probably covers shortened survival too. Counts of survivors are from the toxicity check (mostly the fifth day) where no day follows; animals may have died later. Schedule codes are those of the source, read here as Q, the interval in days (D) or hours (H), X, the number of doses. Some schedule codes hold Z or #, which are not explained here. Where survival is the endpoint, the PubChem record calls one and a half times the control and up active, and a quarter to a half above the control has no call in these data; cut-offs in other NCI protocols can differ. Some entries were tested several times; the results are listed from low to high. Some T/C values are followed by the survivors on the day toxicity was checked, most often the fifth; where none is given, no animal had died by that day.
# Tested on: L1210 leukemia ip in BDF1 mice, survival T/C
# Experiment: NCI In Vivo Anticancer Drug Screen. Data for tumor model L1210 Leukemia (intraperitoneal) in B6D2F1 (BDF1) mice
# Conditions: T/C endpoint: mean survival time, higher T/C = longer survival
# [1] = dose: 100.0 mg/kg/injection, schedule: Q01DX009 (ip), vehicle: Klucel (hydroxypropylcellulose) (HPC)
# [2] = dose: 200.0 mg/kg/injection, schedule: Q04DX003 (ip), vehicle: Klucel (hydroxypropylcellulose) (HPC)
# [3] = dose: 50.0 mg/kg/injection, schedule: Q01DX009 (ip), vehicle: Klucel (hydroxypropylcellulose) (HPC)
smiles,measurement,setting,value
NC(=O)c1cn[nH]c1N,survivor count,"dose: 200.0 mg/kg/injection, schedule: Q01DX009 (ip), vehicle: Klucel (hydroxypropylcellulose) (HPC)",6 of 6
CCCCCCCC/C=C\CCCCCCCCOC(=O)Cc1ccc(N(CCCl)CCCl)cc1,T/C,"dose: 400.0 mg/kg/injection, schedule: Q01DX005 (ip), vehicle: Klucel (hydroxypropylcellulose) (HPC)",129 % of control
CCOC(=O)NCC(CCN(C)C)(c1cccc2ccccc12)C(C)CC (stereo not drawn),survivor count,[1],3 of 6
same,survivor count,[2],3 of 6
CC(=O)c1ccc(NC(=O)N(CCCl)N=O)cc1,T/C,"dose: 4.0 mg/kg/injection, schedule: Q01DX001 (ip), vehicle: carboxymethylcellulose (CMC)",125 % of control
same,T/C,"dose: 6.0 mg/kg/injection, schedule: Q01DX001 (ip), vehicle: carboxymethylcellulose (CMC)",135 % of control
same,T/C,"dose: 8.0 mg/kg/injection, schedule: Q01DX001 (ip), vehicle: carboxymethylcellulose (CMC)",143 % of control
same,T/C,"dose: 9.0 mg/kg/injection, schedule: Q01DX001 (ip), vehicle: carboxymethylcellulose (CMC)",125 % of control
same,T/C,"dose: 12.0 mg/kg/injection, schedule: Q01DX001 (ip), vehicle: carboxymethylcellulose (CMC)",141 % of control
same,T/C,"dose: 37.5 mg/kg/injection, schedule: Q01DX001 (ip), vehicle: carboxymethylcellulose (CMC)",143 % of control
same,T/C,"dose: 50.0 mg/kg/injection, schedule: Q01DX001 (ip), vehicle: carboxymethylcellulose (CMC)",147 % of control
same,survivor count,"dose: 350.0 mg/kg/injection, schedule: Q01DX001 (ip), vehicle: carboxymethylcellulose (CMC)",4 of 6
same,survivor count,"dose: 400.0 mg/kg/injection, schedule: Q01DX001 (ip), vehicle: carboxymethylcellulose (CMC)",4 of 6
same,survivor count,"dose: 500.0 mg/kg/injection, schedule: Q01DX001 (ip), vehicle: carboxymethylcellulose (CMC)",2 of 6
Cc1ccc2ccc3c4ccccc4ccc3[n+]2c1,survivor count,"dose: 40.0 mg/kg/injection, schedule: Q01DX001 (ip), vehicle: saline",0 of 6
same,survivor count,"dose: 80.0 mg/kg/injection, schedule: Q01DX001 (ip), vehicle: saline",0 of 6
same,survivor count,"dose: 100.0 mg/kg/injection, schedule: Q01DX001 (ip), vehicle: saline",0 of 4
same,survivor count,"dose: 200.0 mg/kg/injection, schedule: Q01DX001 (ip), vehicle: saline",1 of 4
same,survivor count,"dose: 400.0 mg/kg/injection, schedule: Q01DX001 (ip), vehicle: saline",1 of 4
O=C[C@@H](CO)O[C@H](C=O)c1c[nH]c(=O)[nH]c1=O,T/C,"dose: 20.0 mg/kg/injection, schedule: Q01DX009 (ip), vehicle: saline",137 % of control
same,T/C,"dose: 25.0 mg/kg/injection, schedule: Q01DX009 (ip), vehicle: saline",146 % of control
same,T/C,"dose: 30.0 mg/kg/injection, schedule: Q01DX009 (ip), vehicle: saline",131 % of control
same,T/C,"dose: 35.0 mg/kg/injection, schedule: Q01DX009 (ip), vehicle: saline",148 % of control
same,T/C,"dose: 40.0 mg/kg/injection, schedule: Q01DX009 (ip), vehicle: saline",140 % of control
same,T/C,"dose: 100.0 mg/kg/injection, schedule: Q03DX003 (ip), vehicle: saline",144 % of control [7 of 8 alive]
COC1NC(=O)NC(=O)C1=[N+]=[N-] (stereo not drawn),T/C,"dose: 1.2 mg/kg/injection, schedule: Q01DX009 (ip), vehicle: saline",130 % of control
same,T/C,"dose: 1.9 mg/kg/injection, schedule: Q01DX009 (ip), vehicle: saline",132 % of control
same,T/C,"dose: 2.9 mg/kg/injection, schedule: Q01DX009 (ip), vehicle: saline with Tween-80",128 % of control
same,T/C,"dose: 4.3 mg/kg/injection, schedule: Q01DX009 (ip), vehicle: saline with Tween-80",128 % of control
same,survivor count,"dose: 20.0 mg/kg/injection, schedule: Q04DX003 (ip), vehicle: saline with Tween-80",0 of 6
Cc1c(NC(=O)Nc2ccc(C3=NCCCN3)cc2)cccc1NC(=O)Nc1ccc(C2=NCCCN2)cc1,T/C,"dose: 10.0 mg/kg/injection, schedule: Q01DX Z (ip), vehicle: water",149 % of control
same,T/C,"dose: 12.5 mg/kg/injection, schedule: Q01DX Z (ip), vehicle: water",142 % of control
CCN(CCCl)c1ccc(/C=C/C2=[N+](C)c3ccccc3C2(C)C)c(C)c1,survivor count,"dose: 3.13 mg/kg/injection, schedule: Q01DX009 (ip), vehicle: saline",3 of 6
same,survivor count,"dose: 6.25 mg/kg/injection, schedule: Q01DX009 (ip), vehicle: saline",0 of 6
same,survivor count,"dose: 12.5 mg/kg/injection, schedule: Q01DX009 (ip), vehicle: saline",5 of 6
same,survivor count,"dose: 25.0 mg/kg/injection, schedule: Q04DX003 (ip), vehicle: saline",4 of 6
same,survivor count,"dose: 100.0 mg/kg/injection, schedule: Q04DX003 (ip), vehicle: saline",0 of 6
same,survivor count,"dose: 200.0 mg/kg/injection, schedule: Q04DX003 (ip), vehicle: saline",0 of 6
same,survivor count,"dose: 400.0 mg/kg/injection, schedule: Q04DX003 (ip), vehicle: saline",0 of 6
CC(C)(C)OC1C2C=CC1C=C2 (stereo not drawn),survivor count,"dose: 50.0 mg/kg/injection, schedule: Q04DX003 (ip), vehicle: Klucel (hydroxypropylcellulose) (HPC)",6 of 6
same,survivor count,[2],6 of 6
CCCCCC(C)NCC(C)O (stereo not drawn),survivor count,"dose: 150.0 mg/kg/injection, schedule: Q01DX001 (ip), vehicle: acid diluted with saline",2 of 6
same,survivor count,"dose: 300.0 mg/kg/injection, schedule: Q01DX001 (ip), vehicle: acid diluted with saline",0 of 6
CCCCCCC(=O)/C=C\c1ccccc1,survivor count,"dose: 100.0 mg/kg/injection, schedule: Q04DX003 (sc), vehicle: steroid suspending solution",0 of 6
same,survivor count,"dose: 200.0 mg/kg/injection, schedule: Q04DX003 (sc), vehicle: steroid suspending solution",0 of 6
same,survivor count,"dose: 400.0 mg/kg/injection, schedule: Q04DX003 (sc), vehicle: steroid suspending solution",0 of 6
Nc1nc(=O)n(C2OC(CO)C(O)C2O)cc1Cl (stereo not drawn),T/C,"dose: 100.0 mg/kg/injection, schedule: Q01DX005 (ip), vehicle: saline",134 and 138 % of control
same,T/C,"dose: 100.0 mg/kg/injection, schedule: Q01DX009 (ip), vehicle: saline",140 % of control
C[N+](C)(C)c1ccc(F)c([N+](=O)[O-])c1,survivor count,"dose: 400.0 mg/kg/injection, schedule: Q04DX002 (ip), vehicle: Klucel (hydroxypropylcellulose) (HPC)",2 of 3
CC(=O)CCC(C(=O)c1ccccc1)c1ccccc1 (stereo not drawn),survivor count,"dose: 333.0 mg/kg/injection, schedule: Q01DX Z (ip), vehicle: methylcellulose (MC)",5 of 6
same,survivor count,"dose: 500.0 mg/kg/injection, schedule: Q01DX Z (ip), vehicle: methylcellulose (MC)",3 of 6
O=C(N/N=C/C1CCCCC1)C(=O)N/N=C/C1CCCCC1,survivor count,"dose: 25.0 mg/kg/injection, schedule: Q01DX009 (ip), vehicle: Klucel (hydroxypropylcellulose) (HPC)",6 of 6
same,T/C,[3],90 and 101 % of control
same,survivor count,[3],6 of 6
same,T/C,[1],"88, 90, 95, 96 % of control"
S=c1ncn(C2CCCCC2)c(=S)[nH]1,survivor count,[2],6 of 6
COc1ccc(NC(=O)N(C)N=O)cc1,T/C,"dose: 65.0 mg/kg/injection, schedule: Q01DX Z (ip), vehicle: carboxymethylcellulose (CMC)",125 % of control
same,survivor count,"dose: 85.0 mg/kg/injection, schedule: Q01DX Z (ip), vehicle: carboxymethylcellulose (CMC)",6 of 6
same,survivor count,"dose: 150.0 mg/kg/injection, schedule: Q01DX Z (ip), vehicle: carboxymethylcellulose (CMC)",4 of 6
same,survivor count,"dose: 200.0 mg/kg/injection, schedule: Q01DX Z (ip), vehicle: carboxymethylcellulose (CMC)",0 of 6
CCOP1(=O)OCC(C(C)(C)C)CO1 (stereo not drawn),survivor count,"dose: 100.0 mg/kg/injection, schedule: Q04DX003 (ip), vehicle: carboxymethylcellulose (CMC)",0 of 6
same,survivor count,"dose: 200.0 mg/kg/injection, schedule: Q04DX003 (ip), vehicle: carboxymethylcellulose (CMC)",0 of 6
same,survivor count,"dose: 400.0 mg/kg/injection, schedule: Q04DX003 (ip), vehicle: carboxymethylcellulose (CMC)",0 of 6
